{"source": "patent US10905680B2", "about": "“Methods of treatment for cholestatic and fibrotic diseases” (Genfit, priority 2016, dated 2021)", "test_system": "C57BL/6 mice", "experiment": "Chronic CDAAc diet-induced liver fibrosis model", "assay_type": "in vivo, mouse", "conditions": "oral 10 mg/kg/day, 12 weeks, vs CDAAc", "note": "At least one compound was matched to its structure with a doubt left."}
{"smiles": "CC(=O)Oc1ccccc1C(=O)Nc1ncc([N+](=O)[O-])s1", "note": "[NTZ, [2-[(5-nitro-1,3-thiazol-2-yl)carbamoyl]phenyl]ethanoate]", "values": [{"measurement": "hepatic collagen content", "value": "significantly lower"}, {"measurement": "hepatic fibrosis area by histological examination", "value": "reduced"}]}
